Data reported in publication PMC10783007.
Results are given in words; binding and its absence hold for the method and conditions named. In cells and extracts the contact can be indirect. A result given as binding can be weak or reduced; the word gives no strength. Sequences can lack the tags named with a protein.

What was measured:
[1] = biological target: RIG-I middle helicase domain construct; assay: co-IP; domain constructs of RIG-I or USP15 transfected into HEK293T cells for 48 h; Nonidet P-40 lysis buffer; IP with anti-Flag or anti-HA antibodies, IB with anti-Flag or anti-HA
[2] = biological target: RIG-I N-terminal tandem CARD domain construct; assay: as above

B1: HA-tagged USP15 (enzyme, UniProt Q9Y4E8 1-981)
chain: MAEGGAADLDTQRSDIATLLKTSLRKGDTWYLVDSRWFKQWKKYVGFDSWDKYQMGDQNVYPGPIDNSGLLKDGDAQSLKEHLIDELDYILLPTEGWNKLVSWYTLMEGQEPIARKVVEQGMFVKHCKVEVYLTELKLCENGNMNNVVTRRFSKADTIDTIEKEIRKIFSIPDEKETRLWNKYMSNTFEPLNKPDSTIQDAGLYQGQVLVIEQKNEDGTWPRGPSTPKSPGASNFSTLPKISPSSLSNNYNNMNNRNVKNSNYCLPSYTAYKNYDYSEPGRNNEQPGLCGLSNLGNTCFMNSAIQCLSNTPPLTEYFLNDKYQEELNFDNPLGMRGEIAKSYAELIKQMWSGKFSYVTPRAFKTQVGRFAPQFSGYQQQDCQELLAFLLDGLHEDLNRIRKKPYIQLKDADGRPDKVVAEEAWENHLKRNDSIIVDIFHGLFKSTLVCPECAKISVTFDPFCYLTLPLPMKKERTLEVYLVRMDPLTKPMQYKVVVPKIGNILDLCTALSALSGIPADKMIVTDIYNHRFHRIFAMDENLSSIMERDDIYVFEININRTEDTEHVIIPVCLREKFRHSSYTHHTGSSLFGQPFLMAVPRNNTEDKLYNLLLLRMCRYVKISTETEETEGSLHCCKDQNINGNGPNGIHEEGSPSEMETDEPDDESSQDQELPSENENSQSEDSVGGDNDSENGLCTEDTCKGQLTGHKKRLFTFQFNNLGNTDINYIKDDTRHIRFDDRQLRLDERSFLALDWDPDLKKRYFDENAAEDFEKHESVEYKPPKKPFVKLKDCIELFTTKEKLGAEDPWYCPNCKEHQQATKKLDLWSLPPVLVVHLKRFSYSRYMRDKLDTLVDFPINDLDMSEFLINPNAGPCRYNLIAVSNHYGGMGGGHYTAFAKNKDDGKWYYFDDSSVSTASEDQIVSKAAYVLFYQRQDTFSGTGFFPLDRETKGASAATGIPLESDEDSNDNDNDIENENCMHTN
binding [1]: binds
binding [2]: binds
